B1: BRPF3 (protein, UniProt Q9ULD4 1-1205, looked up)
Bromodomain and PHD …: MRKPRRKSRQNAEGRRSPSPYSLKCSPTRETLTYAQAQRIVEVDIDGRLHRISIYDPLKIITEDELTAQDITECNSNKENSEQPQFPGKSKKPSSKGKKKESCSKHASGTSFHLPQPSFRMVDSGIQPEAPPLPAAYYRYIEKPPEDLDAEVEYDMDEEDLAWLDMVNEKRRVDGHSLVSADTFELLVDRLEKESYLESRSSGAQQSLIDEDAFCCVCLDDECHNSNVILFCDICNLAVHQECYGVPYIPEGQWLCRCCLQSPSRPVDCILCPNKGGAFKQTSDGHWAHVVCAIWIPEVCFANTVFLEPIEGIDNIPPARWKLTCYICKQKGLGAAIQCHKVNCYTAFHVTCAQRAGLFMKIEPMRETSLNGTIFTVRKTAYCEAHSPPGAATARRKGDSPRSISETGDEEGLKEGDGEEEEEEEVEEEEQEAQGGVSGSLKGVPKKSKMSLKQKIKKEPEEAGQDTPSTLPMLAVPQIPSYRLNKICSGLSFQRKNQFMQRLHNYWLLKRQARNGVPLIRRLHSHLQSQRNAEQREQDEKTSAVKEELKYWQKLRHDLERARLLIELIRKREKLKREQVKVQQAAMELELMPFNVLLRTTLDLLQEKDPAHIFAEPVNLSEVPDYLEFISKPMDFSTMRRKLESHLYRTLEEFEEDFNLIVTNCMKYNAKDTIFHRAAVRLRDLGGAILRHARRQAENIGYDPERGTHLPESPKLEDFYRFSWEDVDNILIPENRAHLSPEVQLKELLEKLDLVSAMRSSGARTRRVRLLRREINALRQKLAQPPPPQPPSLNKTVSNGELPAGPQGDAAVLEQALQEEPEDDGDRDDSKLPPPPTLEPTGPAPSLSEQESPPEPPTLKPINDSKPPSRFLKPRKVEEDELLEKSPLQLGNEPLQRLLSDNGINRLSLMAPDTPAGTPLSGVGRRTSVLFKKAKNGVKLQRSPDRVLENGEDHGVAGSPASPASIEEERHSRKRPRSRSCSESEGERSPQQEEETGMTNGFGKHTESGSDSECSLGLSGGLAFEACSGLTPPKRSRGKPALSRVPFLEGVNGDSDYNGSGRSLLLPFEDRGDLEPLELVWAKCRGYPSYPALIIDPKMPREGLLHNGVPIPVPPLDVLKLGEQKQAEAGEKLFLVLFFDNKRTWQWLPRDKVLPLGVEDTVDKLKMLEGRKTSIRKSVQVAYDRAMIHLSRVRGPHSFVTSSYL
B2: HSPD1 (protein, UniProt P10809 27-573, looked up)
60 kDa heat shock protein, …: AKDVKFGADARALMLQGVDLLADAVAVTMGPKGRTVIIEQSWGSPKVTKDGVTVAKSIDLKDKYKNIGAKLVQDVANNTNEEAGDGTTTATVLARSIAKEGFEKISKGANPVEIRRGVMLAVDAVIAELKKQSKPVTTPEEIAQVATISANGDKEIGNIISDAMKKVGRKGVITVKDGKTLNDELEIIEGMKFDRGYISPYFINTSKGQKCEFQDAYVLLSEKKISSIQSIVPALEIANAHRKPLVIIAEDVDGEALSTLVLNRLKVGLQVVAVKAPGFGDNRKNQLKDMAIATGGAVFGEEGLTLNLEDVQPHDLGKVGEVIVTKDDAMLLKGKGDKAQIEKRIQEIIEQLDVTTSEYEKEKLNERLAKLSDGVAVLKVGGTSDVEVNEKKDRVTDALNATRAAVEEGIVLGGGCALLRCIPALDSLTPANEDQKIGIEIIKRTLKIPAMTIAKNAGVEGSLIVEKIMQSSSEVGYDAMAGDFVNMVEKGIIDPTKVVRTALLDAAGVASLLTTAEVVVTEIPKEEKDPGMGAMGGMGGGMGGGMF
B3: FIP1L1 (protein)
chain: MSAGEVERLVSELSGGTGGDEEEEWLYGGPWDVHVHSDLAKDLDENEVERPEEENASANPPSGIEDETAENGVPKPKVTETEDDSDSDSDDDEDDVHVTIGDIKTGAPQYGSYGTAPVNLNIKTGGRVYGTTGTKVKGVDLDAPGSINGVPLLEVDLDSFEDKPWRKPGADLSDYFNYGFNEDTWKAYCEKQKRIRMGLEVIPVTSTTNKITAEDCTMEVTPGAEIQDGRFNLFKVQQGRTGNSEKETALPSTKAEFTSPPSLFKTGLPPSRNSTSSQSQTSTASRKANSSVGKWQDRYGRAESPDLRRLPGAIDVIGQTITISRVEGRRRANENSNIQVLSERSATEVDNNFSKPPPFFPPGAPPTHLPPPPFLPPPPTVSTAPPLIPPPGFPPPPGAPPPSLIPTIESGHSSGYDSRSARAFPYGNVAFPHLPGSAPSWPSLVDTSKQWDYYARREKDRDRERDRDRERDRDRDRERERTRERERERDHSPTPSVFNSDEERYRYREYAERGYERHRASREKEERHRERRHREKEETRHKSSRSNSRRRHESEEGDSHRRHKHKKSKRSKEGKEAGSEPAPEQESTEATPAE
B4: TRMT10C (protein)
chain: MSSKIPAVTYPKNESTPPSEELELDKWKTTMKSSVQEECVSTISSSKDEDPLAATREFIEMWRLLGREVPEHITEEELKTLMECVSNTAKKKYLKYLYTKEKVKKARQIKKEMKAAAREEAKNIKLLETTEEDKQKNFLFLRLWDRNMDIAMGWKGAQAMQFGQPLVFDMAYENYMKRKELQNTVSQLLESEGWNRRNVDPFHIYFCNLKIDGALHRELVKRYQEKWDKLLLTSTEKSHVDLFPKDSIIYLTADSPNVMTTFRHDKVYVIGSFVDKSMQPGTSLAKAKRLNLATECLPLDKYLQWEIGNKNLTLDQMIRILLCLKNNGNWQEALQFVPKRKHTGFLEISQHSQEFINRLKKAKT
B5: SLC25A24 (protein, UniProt Q6NUK1 1-477, looked up)
Mitochondrial adenyl …: MLRWLRDFVLPTAACQDAEQPTRYETLFQALDRNGDGVVDIGELQEGLRNLGIPLGQDAEEKIFTTGDVNKDGKLDFEEFMKYLKDHEKKMKLAFKSLDKNNDGKIEASEIVQSLQTLGLTISEQQAELILQSIDVDGTMTVDWNEWRDYFLFNPVTDIEEIIRFWKHSTGIDIGDSLTIPDEFTEDEKKSGQWWRQLLAGGIAGAVSRTSTAPLDRLKIMMQVHGSKSDKMNIFGGFRQMVKEGGIRSLWRGNGTNVIKIAPETAVKFWAYEQYKKLLTEEGQKIGTFERFISGSMAGATAQTFIYPMEVMKTRLAVGKTGQYSGIYDCAKKILKHEGLGAFYKGYVPNLLGIIPYAGIDLAVYELLKSYWLDNFAKDSVNPGVMVLLGCGALSSTCGQLASYPLALVRTRMQAQAMLEGSPQLNMVGLFRRIISKEGIPGLYRGITPNFMKVLPAVGISYVVYENMKQTLGVTQK
B6: SUCLG2 (protein, UniProt Q96I99 38-432, looked up)
Succinate--CoA ligase …: LNLQEYQSKKLMSDNGVRVQRFFVADTANEALEAAKRLNAKEIVLKAQILAGGRGKGVFNSGLKGGVHLTKDPNVVGQLAKQMIGYNLATKQTPKEGVKVNKVMVAEALDISRETYLAILMDRSCNGPVLVGSPQGGVDIEEVAASNPELIFKEQIDIFEGIKDSQAQRMAENLGFVGPLKSQAADQITKLYNLFLKIDATQVEVNPFGETPEGQVVCFDAKINFDDNAEFRQKDIFAMDDKSENEPIENEAAKYDLKYIGLDGNIACFVNGAGLAMATCDIIFLNGGKPANFLDLGGGVKEAQVYQAFKLLTADPKVEAILVNIFGGIVNCAIIANGITKACRELELKVPLVVRLEGTNVQEAQKILNNSGLPITSAIDLEDAAKKAVASVAKK
B7: SLC25A12 (protein, UniProt O75746 2-678, looked up)
Electrogenic …: AVKVQTTKRGDPHELRNIFLQYASTEVDGERYMTPEDFVQRYLGLYNDPNSNPKIVQLLAGVADQTKDGLISYQEFLAFESVLCAPDSMFIVAFQLFDKSGNGEVTFENVKEIFGQTIIHHHIPFNWDCEFIRLHFGHNRKKHLNYTEFTQFLQELQLEHARQAFALKDKSKSGMISGLDFSDIMVTIRSHMLTPFVEENLVSAAGGSISHQVSFSYFNAFNSLLNNMELVRKIYSTLAGTRKDVEVTKEEFAQSAIRYGQVTPLEIDILYQLADLYNASGRLTLADIERIAPLAEGALPYNLAELQRQQSPGLGRPIWLQIAESAYRFTLGSVAGAVGATAVYPIDLVKTRMQNQRGSGSVVGELMYKNSFDCFKKVLRYEGFFGLYRGLIPQLIGVAPEKAIKLTVNDFVRDKFTRRDGSVPLPAEVLAGGCAGGSQVIFTNPLEIVKIRLQVAGEITTGPRVSALNVLRDLGIFGLYKGAKACFLRDIPFSAIYFPVYAHCKLLLADENGHVGGLNLLAAGAMAGVPAASLVTPADVIKTRLQVAARAGQTTYSGVIDCFRKILREEGPSAFWKGTAARVFRSSPQFGVTLVTYELLQRWFYIDFGGLKPAGSEPTPKSRIADLPPANPDHIGGYRLATATFAGIENKFGLYLPKFKSPSVAVVQPKAAVAATQ
B8: CHD1L (protein, UniProt Q86WJ1 1-897, looked up)
Chromodomain-helicase-DNA-bind …: MERAGATSRGGQAPGFLLRLHTEGRAEAARVQEQDLRQWGLTGIHLRSYQLEGVNWLAQRFHCQNGCILGDEMGLGKTCQTIALFIYLAGRLNDEGPFLILCPLSVLSNWKEEMQRFAPGLSCVTYAGDKEERACLQQDLKQESRFHVLLTTYEICLKDASFLKSFPWSVLVVDEAHRLKNQSSLLHKTLSEFSVVFSLLLTGTPIQNSLQELYSLLSFVEPDLFSKEEVGDFIQRYQDIEKESESASELHKLLQPFLLRRVKAEVATELPKKTEVVIYHGMSALQKKYYKAILMKDLDAFENETAKKVKLQNILSQLRKCVDHPYLFDGVEPEPFEVGDHLTEASGKLHLLDKLLAFLYSGGHRVLLFSQMTQMLDILQDYMDYRGYSYERVDGSVRGEERHLAIKNFGQQPIFVFLLSTRAGGVGMNLTAADTVIFVDSDFNPQNDLQAAARAHRIGQNKSVKVIRLIGRDTVEEIVYRKAASKLQLTNMIIEGGHFTLGAQKPAADADLQLSEILKFGLDKLLASEGSTMDEIDLESILGETKDGQWVSDALPAAEGGSRDQEEGKNHMYLFEGKDYSKEPSKEDRKSFEQLVNLQKTLLEKASQEGRSLRNKGSVLIPGLVEGSTKRKRVLSPEELEDRQKKRQEAAAKRRRLIEEKKRQKEEAEHKKKMAWWESNNYQSFCLPSEESEPEDLENGEESSAELDYQDPDATSLKYVSGDVTHPQAGAEDALIVHCVDDSGHWGRGGLFTALEKRSAEPRKIYELAGKMKDLSLGGVLLFPVDDKESRNKGQDLLALIVAQHRDRSNVLSGIKMAALEEGLKKIFLAAKKKKASVHLPRIGHATKGFNWYGTERLIRKHLAARGIPTYIYYFPRSKSAVLHSQSSSSSSRQLVP

Tested on: BAF complex subunits and histone proteins
Experiment: Mass spectrometry proteomics of purified HA-SS18 WT and HA-SS18-SSX1 complexes (Tables 5A-5E)
Set-up: species or system human
Conditions: HEK-293T; for Total (total peptides) / Unique (unique peptides): HA-SS18SSX1 purification, NE (soluble nuclear extract) fraction, peptides per identified protein
[1] = HA-SS18SSX1_NE_peptides (Table 5B), HA-SS18-SSX1 BAF complex purification from soluble nuclear extract
[2] = HA-SS18WT_NE_peptides: HA-SS18 WT complexes purified from nuclear extract (NE), label = protein identified (Gene Symbol)

Row | Molecule | Total (peptides) [1] | Unique (peptides) [1] | Total (total peptides) | Unique (unique peptides) | Total (peptides) [2] | Unique (peptides) [2]
1 | B1 | 1 | 1 |  |  |  | 
2 | B2 |  |  | 10 | 10 | 12 | 12
3 | B3 |  |  | 11 | 9 | 11 | 9
4 | B4 |  |  | 11 | 10 | 15 | 15
5 | B5 |  |  | 10 | 10 | 10 | 10
6 | B6 |  |  | 10 | 10 | 10 | 9
7 | B7 |  |  | 12 | 10 | 11 | 11
8 | B8 |  |  | 10 | 10 |  | 
